Values of other authors as cited in patent US10179767B2 (GENENTECH, INC., priority 2015, dated 2019).

Conditions: administered topically (Lidoderm patch); cited from earlier work

CCN(CC)CC(=O)Nc1c(C)cccc1C [lidocaine]
plasma concentrations: about 1 μM
